Test results reported in the supplement of paper PMC4840960.
The list shows a part of the results. Part of the spread comes from offsets between plates or batches.

Tested on: E18 rat cortical neuron-glia co-culture
Assay: total nuclei (DAPI) / Olig2+ nuclei (ratio); higher = more depletion of OPC/OL lineage cells
Details: treatment time: 8 days (DIV5-DIV13)

`CC(C(O)c1ccc(O)cc1)N1CCC(Cc2ccccc2)CC1` (stereo unspecified) [Ifenprodil] showed a total nuclei (1 µM) of 4.02 and a total nuclei (5 µM) of 4.9.

`c1ccc(CC2=NCCN2)cc1` [Tolazoline] was tested, and the total nuclei (1 µM) was 4.31.

For `Cc1sc(N)c(C(=O)c2cccc(C(F)(F)F)c2)c1C`, the total nuclei (1 µM) was 3.62.

`Cc1cccc(C)c1NC(=O)C(C)N` (stereo unspecified) [Tocainide] was tested, and the total nuclei (1 µM) was 3.71 and the total nuclei (5 µM) was > 40.

For `CN1[C@@H]2CC[C@H]1C[C@@H](OC(c1ccccc1)c1ccccc1)C2` [Benzatropine], the total nuclei (1 µM) was 11.3.

`O=C1NC(C(=O)O)CS1` (stereo unspecified) [2-oxothiazolidine-4-carboxylic acid] gave a total nuclei (1 µM) of 5.43 and a total nuclei (5 µM) of 4.1.

For `O=C1NC(=O)C(c2ccccc2)(c2ccccc2)N1` [Phenytoin], the total nuclei (1 µM) was 4.02 and the total nuclei (5 µM) was 2.4.

`O=C1c2c(O)cc(O)cc2OC(c2ccc(O)c(O)c2)C1O` (stereo unspecified) [Taxifolin] showed a total nuclei (1 µM) of 5.1 and a total nuclei (5 µM) of 4.7.

In the case of `O=C(N[C@H](CO)[C@H](O)c1ccc([N+](=O)[O-])cc1)C(Cl)Cl` [Chloramphenicol], the total nuclei (1 µM) is reported as > 40 and the total nuclei (5 µM) is reported as > 40.

`CCN1CCC[C@H]1CNC(=O)c1c(O)c(Cl)cc(Cl)c1OC` [Raclopride] was tested, and the total nuclei (1 µM) was 4.64 and the total nuclei (5 µM) was 4.7.

Work on `O=c1c(O[C@@H]2O[C@H](CO)[C@@H](O)[C@H](O)[C@H]2O)c(-c2ccc(O)c(O)c2)oc2cc(O)cc(O)c12` [Isoquercitrin] yielded a total nuclei (1 µM) of 3.49 and a total nuclei (5 µM) of 3.4.

`C[C@H]1O[C@@H](O[C@H]2[C@@H](O)C[C@H](O[C@H]3[C@@H](O)C[C@H](O[C@H]4CC[C@@]5(C)[C@H](CC[C@@H]6[C@@H]5C[C@@H](O)[C@]5(C)[C@@H](C7=CC(=O)OC7)CC[C@]65O)C4)O[C@@H]3C)O[C@@H]2C)C[C@H](O)[C@@H]1O` [Digoxin] was tested, and the total nuclei (1 µM) was 3.89 and the total nuclei (5 µM) was 2.7.
